{"sequences": {"note": "Chains of the proteins cited; added tags and fusions are not shown. Lines headed by an entry give the natural chain unless they say otherwise; changes in a name come on top.", "UniProt Q7Z434": "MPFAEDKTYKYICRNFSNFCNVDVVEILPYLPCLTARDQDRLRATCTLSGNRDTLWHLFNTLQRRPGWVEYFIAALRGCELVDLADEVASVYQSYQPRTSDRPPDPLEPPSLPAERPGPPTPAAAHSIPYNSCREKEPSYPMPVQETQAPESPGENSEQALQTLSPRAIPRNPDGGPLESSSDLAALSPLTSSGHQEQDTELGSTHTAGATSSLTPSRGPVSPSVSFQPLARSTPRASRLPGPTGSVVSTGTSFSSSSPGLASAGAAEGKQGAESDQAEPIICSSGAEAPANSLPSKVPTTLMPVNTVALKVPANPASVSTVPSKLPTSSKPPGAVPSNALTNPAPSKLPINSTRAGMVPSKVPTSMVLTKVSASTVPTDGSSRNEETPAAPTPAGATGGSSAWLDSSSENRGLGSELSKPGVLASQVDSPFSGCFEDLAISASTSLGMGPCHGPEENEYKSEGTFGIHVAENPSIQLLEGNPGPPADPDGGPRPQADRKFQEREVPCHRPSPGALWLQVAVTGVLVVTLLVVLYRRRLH", "UniProt Q9Y3Z3": "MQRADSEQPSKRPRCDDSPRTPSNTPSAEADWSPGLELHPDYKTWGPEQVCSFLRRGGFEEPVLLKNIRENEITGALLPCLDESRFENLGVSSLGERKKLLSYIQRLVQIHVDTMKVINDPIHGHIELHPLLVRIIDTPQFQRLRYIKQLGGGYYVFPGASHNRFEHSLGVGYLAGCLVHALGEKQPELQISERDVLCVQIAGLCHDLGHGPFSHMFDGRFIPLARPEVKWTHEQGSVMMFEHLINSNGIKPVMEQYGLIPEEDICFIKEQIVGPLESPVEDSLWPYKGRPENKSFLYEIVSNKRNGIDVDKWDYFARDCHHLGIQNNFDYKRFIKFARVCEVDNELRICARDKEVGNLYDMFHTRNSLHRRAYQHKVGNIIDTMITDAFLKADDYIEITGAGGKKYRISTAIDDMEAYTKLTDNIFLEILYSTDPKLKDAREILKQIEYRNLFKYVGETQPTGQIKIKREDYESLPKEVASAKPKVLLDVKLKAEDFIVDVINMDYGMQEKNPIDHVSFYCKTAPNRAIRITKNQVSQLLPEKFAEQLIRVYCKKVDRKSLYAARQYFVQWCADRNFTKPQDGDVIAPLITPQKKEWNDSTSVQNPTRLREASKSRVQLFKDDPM"}, "source": "paper PMC10404699", "key": {"[1]": {"target": "FLAG-tagged full-length MAVS (mitochondrial antiviral-signaling protein) (human) (UniProt Q7Z434)", "assay": "co-IP; HEK293T cotransfected, lysed 36 h posttransfection; IP with anti-FLAG antibody and Dynabeads Protein G; washed with 50 mM Tris (pH7.4), 150 mM NaCl, 1% NP-40, 0.25% sodium deoxycholate; immunoblot"}, "[2]": {"target": "T1, FLAG-tagged full-length IRF7 (IFN regulatory factor 7) (human) (UniProt Q92985)", "T1 sequence": "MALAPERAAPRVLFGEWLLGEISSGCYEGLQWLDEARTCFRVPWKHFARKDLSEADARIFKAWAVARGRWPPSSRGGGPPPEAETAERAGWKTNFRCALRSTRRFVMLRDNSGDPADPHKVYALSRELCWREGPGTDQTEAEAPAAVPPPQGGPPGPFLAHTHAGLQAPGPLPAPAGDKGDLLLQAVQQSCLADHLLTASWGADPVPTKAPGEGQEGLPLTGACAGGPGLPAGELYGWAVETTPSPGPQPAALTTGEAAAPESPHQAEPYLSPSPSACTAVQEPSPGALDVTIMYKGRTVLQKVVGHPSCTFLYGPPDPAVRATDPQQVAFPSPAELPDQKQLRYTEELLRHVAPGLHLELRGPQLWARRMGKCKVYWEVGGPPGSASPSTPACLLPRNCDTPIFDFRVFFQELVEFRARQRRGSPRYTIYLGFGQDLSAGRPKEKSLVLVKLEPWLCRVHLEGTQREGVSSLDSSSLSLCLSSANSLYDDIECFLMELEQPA", "assay": "co-IP; HEK293T cotransfected, lysed 36 h posttransfection; IP with anti-FLAG antibody and Dynabeads Protein G; washed with 50 mM Tris (pH7.4), 150 mM NaCl, 1% NP-40, 0.25% sodium deoxycholate; immunoblot"}, "[3]": {"target": "HA-tagged SAMHD1 WT (sterile alpha motif and HD domain-containing protein 1) (human) (UniProt Q9Y3Z3)", "assay": "co-IP; HEK293T cotransfected, lysed 36 h posttransfection; IP with anti-HA antibody (HA-SAMHD1 as bait) and Dynabeads Protein G; nonspecific IgG as negative control; washed with 50 mM Tris (pH7.4), 150 mM NaCl, 1% NP-40, 0.25% sodium deoxycholate; immunoblot"}, "[4]": {"target": "endogenous SAMHD1 of THP-1 cells (human (endogenous in THP-1)) (UniProt Q9Y3Z3)", "assay": "co-IP; endogenous proteins; THP-1 control cells mock-infected or infected with SeV (MOI of 10), harvested at 6 hpi; IP with SAMHD1 antibody or IgG control; immunoblot"}}, "note": "No constants are given. Whether binding was seen depends on the method and setting. Binding seen in cells or lysates may run through a third protein. Some entries that bind do so weakly or less than the wild type. For some assays here: Where a sequence is shown, tags or fusion partners need not be part of it."}
{"substance": "HA-tagged SAMHD1 WT (sterile alpha motif and HD domain-containing protein 1) (from UniProt Q9Y3Z3 1-626)", "values": [{"measurement": "binding", "setting": "[1]", "result": "binds"}, {"measurement": "binding", "setting": "[2]", "result": "binds"}]}
{"substance": "HA-tagged SAMHD1 HD/RN mutant (H206R and D207N) (from UniProt Q9Y3Z3 1-626)", "values": [{"measurement": "binding", "setting": "[1]", "result": "binds"}]}
{"substance": "FLAG-tagged full-length MAVS (mitochondrial antiviral-signaling protein) (from UniProt Q7Z434 1-540)", "values": [{"measurement": "binding", "setting": "[3]", "result": "binds"}]}
{"substance": "endogenous MAVS of THP-1 cells (from UniProt Q7Z434 1-540)", "values": [{"measurement": "binding", "setting": "[4]", "result": "binds"}]}
